Where a chain is given by its changes, count along the chain named. In names and notes the source's numbering stands. Results are given in words; binding and its absence hold for the method and conditions named. For some assays here: In cells and extracts the contact can be indirect. Some entries that bind do so weakly or less than the wild type.
B1: yeast 2C smc1DD (Smc1G22C K639C K554D K661D) (protein, UniProt P32908 1-1225)
chain: MGRLVGLELSNFKSYRGVTKVCFGESNFTSIIGPNGSGKSNMMDAISFVLGVRSNHLRSNILKDLIYRGVLNDENSDDYDNEGAASSNPQSAYVKAFYQKGNKLVELMRIISRNGDTSYKIDGKTVSYKDYSIFLENENILIKAKNFLVFQGDVEQIAAQSPVELSRMFEEVSGSIQYKKEYEELKEKIEKLSKSATESIKNRRRIHGELKTYKEGINKNEEYRKQLDKKNELQKFQALWQLYHLEQQKEELTDKLSALNSEISSLKGKINNEMKSLQRSKSSFVKESAVISKQKSKLDYIFKDKEKLVSDLRLIKVPQQAAGKRISHIEKRIESLQKDLQRQKTYVERFETQLKVVTRSKEAFEEEIKQSARNYDKFKLNENDLKTYNCLHEKYLTEGGSILEEKIAVLNNDKREIQEELERFNKRADISKRRITEELSITGEKLDTQLNDLRVSLNEKNALHTERLHELKKLQSDIESANNQEYDLNFKLRETLVKIDDLSANQRETMKERKLRENIAMLKRFFPGVKGLVHDLCHPKKEKYGLAVSTILGDNFDSVIVENLTVAQECIAFLKKQRAGTASFIPLDTIETELPTLSLPDSQDYILSINAIDYEPEYEKAMQYVCGDSIICNTLNIACDLKWKKGIRGKLVTIEGALIHDAGLMTGGISGDANNRWDKEEYQSLMSLKDKLLIQIDELSNGQRSNSIRAREVENSVSLLNSDIANLRTQVTQQKRSLDENRLEIKYHNDLIEKEIQPKITELKKKLDDLENTKDNLVKEKEALQNNIFKEFTSKIGFTIKEYENHSGELMRQQSKELQQLQKQILTVENKLQFETDRLSTTQRRYEKAQKDLENAQVEMKSLEEQEYAIEMKIGSIESKLEEHKNHLDELQKKFVTKQSELNSSEDILEDMNSNLQVLKRERDGIKEDIEKFDLERVTALKNCKISNINIPISSETTIDDLPISSTDNEAITISNSIDINYKGLPKKYKENNTDSARKELEQKIHEVEEILNELQPNARALERYDEAEGRFEVINNETEQLKAEEKKILNQFLKIKKKRKELFEKTFDYVSDHLDAIYRELTKNPNSNVELAGGNASLTIEDEDEPFNAGIKYHATPPLKRFKDMEYLSGGEKTVAALALLFAINSYQPSPFFVLDEVDAALDITNVQRIAAYIRRHRNPDLQFIVISLKNTMFEKSDALVGVYRQQQENSSKIITLDLSNYAE
B2: yeast 2C Smc1 (Smc1G22C K639C) (protein, UniProt P32908 1-1225)
chain: B1 chain with D554K, D661K
B3: yeast 2C Smc1DDD (Smc1G22C K639C K554D K650D K661D) (protein, UniProt P32908 1-1225)
chain: B1 chain with K650D
B4: yeast Smc1 (subunit of the purified wild type tetramer) (protein, UniProt P32908 1-1225)
chain: B1 chain with C22G, D554K, C639K, D661K
B5: yeast smc1DDD (Smc1 K554D K650D K661D, subunit of the purified DDD mutant tetramer) (protein, UniProt P32908 1-1225)
chain: B1 chain with C22G, C639K, K650D

Legend:
[1] = biological target: T1, yeast 2C smc3AAA (Smc3E570C S1043C R665A K668A R669A) (S. cerevisiae) (UniProt P47037); assay: cross-linking
T1 sequence: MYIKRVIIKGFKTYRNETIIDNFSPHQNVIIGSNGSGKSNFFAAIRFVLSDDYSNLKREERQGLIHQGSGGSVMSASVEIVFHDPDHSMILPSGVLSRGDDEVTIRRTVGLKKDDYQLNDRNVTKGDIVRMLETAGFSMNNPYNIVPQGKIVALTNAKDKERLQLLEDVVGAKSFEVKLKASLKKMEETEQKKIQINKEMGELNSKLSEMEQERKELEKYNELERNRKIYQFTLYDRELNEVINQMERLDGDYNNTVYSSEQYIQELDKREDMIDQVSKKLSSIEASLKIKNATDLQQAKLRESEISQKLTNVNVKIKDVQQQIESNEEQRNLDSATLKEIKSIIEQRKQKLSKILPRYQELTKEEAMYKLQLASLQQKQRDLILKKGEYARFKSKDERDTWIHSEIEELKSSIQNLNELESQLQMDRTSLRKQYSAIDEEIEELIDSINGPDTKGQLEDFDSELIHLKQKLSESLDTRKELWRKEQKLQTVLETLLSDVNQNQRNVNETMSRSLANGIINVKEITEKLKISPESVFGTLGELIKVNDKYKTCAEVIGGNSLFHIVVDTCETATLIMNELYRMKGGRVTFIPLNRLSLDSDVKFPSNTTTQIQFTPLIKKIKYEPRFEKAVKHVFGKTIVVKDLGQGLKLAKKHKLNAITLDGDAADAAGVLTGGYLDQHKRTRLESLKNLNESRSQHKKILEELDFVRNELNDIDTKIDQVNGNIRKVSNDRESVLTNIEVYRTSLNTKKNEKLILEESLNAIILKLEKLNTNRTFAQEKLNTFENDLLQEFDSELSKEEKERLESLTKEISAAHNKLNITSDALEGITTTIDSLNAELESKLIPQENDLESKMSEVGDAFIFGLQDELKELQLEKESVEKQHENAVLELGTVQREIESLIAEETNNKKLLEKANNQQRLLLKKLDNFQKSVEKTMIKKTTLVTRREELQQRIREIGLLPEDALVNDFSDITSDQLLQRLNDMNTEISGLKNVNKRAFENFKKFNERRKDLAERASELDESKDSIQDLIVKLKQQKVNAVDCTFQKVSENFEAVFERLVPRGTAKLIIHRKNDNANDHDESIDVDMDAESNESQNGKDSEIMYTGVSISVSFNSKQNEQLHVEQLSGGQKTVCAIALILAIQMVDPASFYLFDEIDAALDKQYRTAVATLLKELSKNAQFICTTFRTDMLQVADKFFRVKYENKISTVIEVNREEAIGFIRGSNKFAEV

[2] = biological target: T2, yeast 2C Smc3 (Smc3E570C S1043C) (S. cerevisiae) (UniProt P47037); assay: cross-linking
T2 sequence: T1 sequence with A665R, A668K, A669R

[3] = biological target: T3, yeast Smc3 (subunit of the purified tetramers) (S. cerevisiae) (UniProt P47037); assay: co-purification
T3 sequence: T1 sequence with C570E, A665R, A668K, A669R, C1043S

| Binder | binding [2] | binding [3] | further results |
| --- | --- | --- | --- |
| B1 |  |  | binding [1]: binds |
| B2 | binds |  |  |
| B3 | binds |  |  |
| B4 |  | binds |  |
| B5 |  | binds |  |

Source: doi:10.1101/197848
